Assay results as given in article PMC11408624.
For at least one entry, the source does not settle the construct or the ends of the probe. Where a protein sequence is shown, tags need not be part of it.

Biological target: T1, CyuR (YbaO, DecR) (UniProt P0ACJ5)
T1 sequence (looked up, limits assumed): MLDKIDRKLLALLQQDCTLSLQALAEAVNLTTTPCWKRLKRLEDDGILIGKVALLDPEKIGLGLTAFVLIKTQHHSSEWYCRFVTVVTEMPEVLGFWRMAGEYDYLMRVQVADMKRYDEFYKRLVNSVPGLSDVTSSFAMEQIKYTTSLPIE
Experiment: fluorescence polarization
Conditions: no Cys; 20 mM Tris-HCl pH 7.5, 0.1 M NaCl, 0.5 mM EDTA, 10 mM MgSO4, 2 mM DTT, 5 ug/mL herring sperm DNA, 10 nM DNA, 1 h at 30 C, +/- 15 mM L-Cys; recombinant protein; protein details: N-terminal 6xHis

“AGGAAAATTGTTGCCATTTAGCCTTTAAAATGGA (double strand) [cyuR upstream CyuR site, C. braakii ortholog]”: binds.
